In the supplement of paper PMC10849652:
Some of the results follow.

Protein sequences, listed by entry. Tags and fused reporters are not part of them. Lines headed by an entry give the natural chain unless they say otherwise; changes in a name come on top.
UniProt O94911: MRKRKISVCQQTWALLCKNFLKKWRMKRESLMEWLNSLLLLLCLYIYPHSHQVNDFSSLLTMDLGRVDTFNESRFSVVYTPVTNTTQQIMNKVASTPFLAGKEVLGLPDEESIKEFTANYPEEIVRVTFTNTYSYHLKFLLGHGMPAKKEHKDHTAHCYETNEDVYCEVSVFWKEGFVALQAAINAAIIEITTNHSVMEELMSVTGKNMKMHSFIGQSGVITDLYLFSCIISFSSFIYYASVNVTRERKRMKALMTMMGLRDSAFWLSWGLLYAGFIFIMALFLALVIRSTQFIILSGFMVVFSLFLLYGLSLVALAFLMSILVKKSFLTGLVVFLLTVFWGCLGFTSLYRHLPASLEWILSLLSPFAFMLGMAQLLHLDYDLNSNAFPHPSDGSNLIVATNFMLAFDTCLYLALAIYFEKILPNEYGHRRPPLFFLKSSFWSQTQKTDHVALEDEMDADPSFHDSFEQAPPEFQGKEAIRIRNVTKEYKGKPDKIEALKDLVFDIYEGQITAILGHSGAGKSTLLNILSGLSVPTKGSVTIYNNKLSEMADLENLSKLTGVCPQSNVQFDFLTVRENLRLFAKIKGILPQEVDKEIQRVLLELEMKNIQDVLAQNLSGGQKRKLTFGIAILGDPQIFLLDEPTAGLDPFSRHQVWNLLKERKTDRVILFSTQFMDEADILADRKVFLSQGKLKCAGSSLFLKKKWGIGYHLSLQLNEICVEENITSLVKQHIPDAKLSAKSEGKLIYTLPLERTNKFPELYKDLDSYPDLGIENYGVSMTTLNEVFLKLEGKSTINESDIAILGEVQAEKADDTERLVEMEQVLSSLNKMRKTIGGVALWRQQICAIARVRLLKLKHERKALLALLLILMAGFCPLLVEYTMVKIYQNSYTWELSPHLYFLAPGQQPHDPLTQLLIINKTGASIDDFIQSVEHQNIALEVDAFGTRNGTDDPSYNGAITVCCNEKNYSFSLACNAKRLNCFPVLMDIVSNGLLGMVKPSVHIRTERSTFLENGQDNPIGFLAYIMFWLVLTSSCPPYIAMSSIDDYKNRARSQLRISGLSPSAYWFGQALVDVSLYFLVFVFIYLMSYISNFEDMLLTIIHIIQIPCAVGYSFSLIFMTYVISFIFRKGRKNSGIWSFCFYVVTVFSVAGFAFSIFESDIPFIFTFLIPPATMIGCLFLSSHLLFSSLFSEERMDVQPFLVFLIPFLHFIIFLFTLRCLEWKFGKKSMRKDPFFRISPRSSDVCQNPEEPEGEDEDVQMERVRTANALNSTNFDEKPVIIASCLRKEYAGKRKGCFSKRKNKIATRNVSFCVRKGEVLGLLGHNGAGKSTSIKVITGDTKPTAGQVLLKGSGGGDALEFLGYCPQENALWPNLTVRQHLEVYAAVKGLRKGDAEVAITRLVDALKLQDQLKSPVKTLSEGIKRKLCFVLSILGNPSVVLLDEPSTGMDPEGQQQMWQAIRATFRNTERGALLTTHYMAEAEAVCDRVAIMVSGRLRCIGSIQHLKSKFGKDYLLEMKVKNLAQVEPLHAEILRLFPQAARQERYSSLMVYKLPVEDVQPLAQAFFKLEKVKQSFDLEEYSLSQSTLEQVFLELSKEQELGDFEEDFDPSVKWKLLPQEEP
UniProt Q8TB40: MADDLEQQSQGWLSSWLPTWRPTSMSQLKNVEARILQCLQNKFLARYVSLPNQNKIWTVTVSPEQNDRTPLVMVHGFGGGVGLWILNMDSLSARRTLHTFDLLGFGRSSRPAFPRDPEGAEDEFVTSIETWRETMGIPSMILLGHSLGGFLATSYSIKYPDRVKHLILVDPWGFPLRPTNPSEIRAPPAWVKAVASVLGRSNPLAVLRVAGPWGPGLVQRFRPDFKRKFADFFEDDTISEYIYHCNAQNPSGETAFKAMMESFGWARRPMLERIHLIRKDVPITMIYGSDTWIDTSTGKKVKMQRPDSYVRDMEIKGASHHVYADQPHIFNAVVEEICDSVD
UniProt P28330: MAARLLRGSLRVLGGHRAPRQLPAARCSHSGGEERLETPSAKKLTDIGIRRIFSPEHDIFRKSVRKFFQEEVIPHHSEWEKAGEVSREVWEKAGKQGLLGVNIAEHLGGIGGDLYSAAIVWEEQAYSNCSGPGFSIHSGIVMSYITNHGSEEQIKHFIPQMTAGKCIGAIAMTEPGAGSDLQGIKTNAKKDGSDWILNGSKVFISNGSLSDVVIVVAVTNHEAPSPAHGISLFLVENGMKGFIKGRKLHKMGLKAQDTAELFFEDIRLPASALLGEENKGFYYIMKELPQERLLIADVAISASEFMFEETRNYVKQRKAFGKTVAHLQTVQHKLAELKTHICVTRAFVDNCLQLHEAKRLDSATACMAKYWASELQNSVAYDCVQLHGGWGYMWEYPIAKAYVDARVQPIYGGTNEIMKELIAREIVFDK
UniProt Q8TDG2: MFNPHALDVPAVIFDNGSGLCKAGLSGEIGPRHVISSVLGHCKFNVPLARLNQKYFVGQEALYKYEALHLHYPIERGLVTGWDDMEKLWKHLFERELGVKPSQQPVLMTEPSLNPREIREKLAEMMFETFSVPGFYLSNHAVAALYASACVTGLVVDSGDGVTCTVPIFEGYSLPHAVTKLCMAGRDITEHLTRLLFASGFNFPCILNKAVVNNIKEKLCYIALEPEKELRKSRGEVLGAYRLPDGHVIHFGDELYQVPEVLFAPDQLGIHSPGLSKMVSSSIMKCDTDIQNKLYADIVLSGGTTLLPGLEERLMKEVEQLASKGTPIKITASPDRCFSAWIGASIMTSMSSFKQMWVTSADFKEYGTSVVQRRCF
UniProt P80404: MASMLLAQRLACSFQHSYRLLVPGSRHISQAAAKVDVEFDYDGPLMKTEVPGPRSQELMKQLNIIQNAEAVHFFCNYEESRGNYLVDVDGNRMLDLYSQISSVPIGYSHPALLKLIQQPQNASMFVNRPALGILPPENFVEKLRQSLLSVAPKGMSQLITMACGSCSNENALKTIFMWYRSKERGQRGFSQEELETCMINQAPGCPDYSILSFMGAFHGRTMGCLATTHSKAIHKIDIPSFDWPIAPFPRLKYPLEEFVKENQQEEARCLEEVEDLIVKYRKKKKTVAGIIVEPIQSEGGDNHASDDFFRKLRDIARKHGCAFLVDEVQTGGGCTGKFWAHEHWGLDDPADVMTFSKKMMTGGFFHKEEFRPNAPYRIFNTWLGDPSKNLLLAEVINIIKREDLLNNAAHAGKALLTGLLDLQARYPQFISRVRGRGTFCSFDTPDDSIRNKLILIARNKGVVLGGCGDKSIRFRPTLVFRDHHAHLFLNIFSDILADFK
UniProt Q96QU6: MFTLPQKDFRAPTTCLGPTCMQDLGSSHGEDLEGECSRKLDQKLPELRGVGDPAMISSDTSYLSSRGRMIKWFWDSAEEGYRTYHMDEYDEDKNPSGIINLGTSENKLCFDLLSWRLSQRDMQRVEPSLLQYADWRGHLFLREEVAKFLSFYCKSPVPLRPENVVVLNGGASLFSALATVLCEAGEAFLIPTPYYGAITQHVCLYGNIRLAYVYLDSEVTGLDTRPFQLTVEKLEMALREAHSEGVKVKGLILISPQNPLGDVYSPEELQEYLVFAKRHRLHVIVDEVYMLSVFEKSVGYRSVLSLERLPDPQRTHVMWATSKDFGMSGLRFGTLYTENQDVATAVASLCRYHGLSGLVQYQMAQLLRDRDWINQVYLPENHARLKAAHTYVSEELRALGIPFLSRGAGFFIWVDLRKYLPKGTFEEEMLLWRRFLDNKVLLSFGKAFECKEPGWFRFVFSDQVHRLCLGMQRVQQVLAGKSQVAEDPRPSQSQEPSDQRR
UniProt Q9BV23: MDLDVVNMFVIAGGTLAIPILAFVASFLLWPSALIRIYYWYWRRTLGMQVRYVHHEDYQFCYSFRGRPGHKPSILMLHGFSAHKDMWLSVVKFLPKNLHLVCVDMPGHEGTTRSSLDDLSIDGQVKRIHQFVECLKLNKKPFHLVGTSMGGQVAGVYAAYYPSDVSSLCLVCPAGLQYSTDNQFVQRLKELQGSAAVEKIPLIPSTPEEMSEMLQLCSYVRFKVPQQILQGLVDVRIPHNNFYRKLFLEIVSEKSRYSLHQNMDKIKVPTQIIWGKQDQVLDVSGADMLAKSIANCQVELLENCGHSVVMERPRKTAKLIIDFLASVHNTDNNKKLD
UniProt Q15067: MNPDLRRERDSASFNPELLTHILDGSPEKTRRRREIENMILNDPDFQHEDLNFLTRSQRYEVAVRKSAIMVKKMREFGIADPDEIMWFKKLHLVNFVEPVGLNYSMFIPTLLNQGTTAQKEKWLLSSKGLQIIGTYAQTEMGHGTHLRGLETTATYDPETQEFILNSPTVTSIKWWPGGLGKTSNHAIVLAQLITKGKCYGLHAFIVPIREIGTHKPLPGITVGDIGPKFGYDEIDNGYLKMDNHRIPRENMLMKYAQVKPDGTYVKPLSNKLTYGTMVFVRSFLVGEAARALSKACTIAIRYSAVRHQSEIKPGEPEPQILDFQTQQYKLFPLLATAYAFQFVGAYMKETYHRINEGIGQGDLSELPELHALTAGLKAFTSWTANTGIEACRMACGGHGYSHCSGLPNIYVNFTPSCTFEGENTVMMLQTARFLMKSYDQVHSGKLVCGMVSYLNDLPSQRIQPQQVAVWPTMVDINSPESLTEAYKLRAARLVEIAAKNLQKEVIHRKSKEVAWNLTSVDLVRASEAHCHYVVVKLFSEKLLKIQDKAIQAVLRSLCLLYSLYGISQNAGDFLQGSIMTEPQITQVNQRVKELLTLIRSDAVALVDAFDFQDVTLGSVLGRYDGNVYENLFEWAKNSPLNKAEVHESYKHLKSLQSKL
UniProt Q9BTE6: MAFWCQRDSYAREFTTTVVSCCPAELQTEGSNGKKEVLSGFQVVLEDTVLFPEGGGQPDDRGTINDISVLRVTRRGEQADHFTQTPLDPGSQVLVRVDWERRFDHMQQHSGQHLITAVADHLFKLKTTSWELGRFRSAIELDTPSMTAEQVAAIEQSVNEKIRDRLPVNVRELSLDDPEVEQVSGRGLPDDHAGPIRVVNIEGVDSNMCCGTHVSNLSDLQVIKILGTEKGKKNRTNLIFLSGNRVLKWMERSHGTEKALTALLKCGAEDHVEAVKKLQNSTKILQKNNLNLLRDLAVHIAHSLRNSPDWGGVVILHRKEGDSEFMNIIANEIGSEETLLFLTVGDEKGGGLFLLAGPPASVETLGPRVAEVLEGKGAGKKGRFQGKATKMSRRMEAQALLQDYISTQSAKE
UniProt Q2M3G0: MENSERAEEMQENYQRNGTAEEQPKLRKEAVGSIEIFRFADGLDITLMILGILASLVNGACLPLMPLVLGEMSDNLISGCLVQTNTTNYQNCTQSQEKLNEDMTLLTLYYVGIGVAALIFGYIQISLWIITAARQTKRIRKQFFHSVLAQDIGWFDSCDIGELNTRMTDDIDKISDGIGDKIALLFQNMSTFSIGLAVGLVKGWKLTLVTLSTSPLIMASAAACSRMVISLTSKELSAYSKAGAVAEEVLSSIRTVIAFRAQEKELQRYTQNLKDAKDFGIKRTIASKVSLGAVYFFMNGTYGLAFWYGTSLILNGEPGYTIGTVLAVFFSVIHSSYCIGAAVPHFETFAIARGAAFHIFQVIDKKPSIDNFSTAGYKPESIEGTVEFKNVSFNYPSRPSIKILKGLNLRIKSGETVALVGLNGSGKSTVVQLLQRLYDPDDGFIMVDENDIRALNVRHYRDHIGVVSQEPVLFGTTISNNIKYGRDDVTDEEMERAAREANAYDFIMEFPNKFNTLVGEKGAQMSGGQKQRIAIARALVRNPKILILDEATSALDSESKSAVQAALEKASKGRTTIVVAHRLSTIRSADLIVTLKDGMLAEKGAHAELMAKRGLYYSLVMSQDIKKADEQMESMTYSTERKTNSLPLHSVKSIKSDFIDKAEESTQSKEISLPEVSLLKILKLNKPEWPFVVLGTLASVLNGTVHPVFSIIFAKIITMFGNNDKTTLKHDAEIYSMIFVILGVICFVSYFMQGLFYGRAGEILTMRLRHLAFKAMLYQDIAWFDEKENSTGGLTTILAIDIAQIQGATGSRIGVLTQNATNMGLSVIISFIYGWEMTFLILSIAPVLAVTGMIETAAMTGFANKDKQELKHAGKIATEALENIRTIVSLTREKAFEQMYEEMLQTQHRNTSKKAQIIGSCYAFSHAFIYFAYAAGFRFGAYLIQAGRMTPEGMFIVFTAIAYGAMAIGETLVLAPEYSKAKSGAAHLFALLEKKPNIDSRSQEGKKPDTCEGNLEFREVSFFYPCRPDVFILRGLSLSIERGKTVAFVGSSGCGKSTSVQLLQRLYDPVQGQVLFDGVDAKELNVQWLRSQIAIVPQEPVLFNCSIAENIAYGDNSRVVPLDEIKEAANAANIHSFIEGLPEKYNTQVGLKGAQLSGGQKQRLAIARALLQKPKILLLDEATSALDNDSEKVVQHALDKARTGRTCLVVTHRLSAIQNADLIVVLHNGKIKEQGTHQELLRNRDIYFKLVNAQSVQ

How the values were obtained:
Assay in all cases: log2 fold change, soluble protein after heating vs DMSO (PISA); higher = thermal stabilisation; K562 cells, 10 uM, 30 min; active = over 0.2 and 3.5 SD of the protein, either way, in both replicates (recomputed)
filanesib = compound: CON(C)C(=O)N1N=C(c2cc(F)ccc2F)S[C@@]1(CCCN)c1ccccc1 [filanesib]
Outline: (§1)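 Aliquots of K562 cells (2×10^6 cells/mL) treated with 10 μM compound for 30 min were heated for 3 min over 48°C-58°C. After pooling and extraction in PBS with 0.5% NP-40 at 4°C, soluble protein from a 21,000xg, 90 min spin was quantified by TMTpro 16plex LC-MS/MS with channel sums equalised. Thermal stability is expressed against control samples, from duplicates, as a log2 fold change.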

alisertib = compound: COc1cc(Nc2ncc3c(n2)-c2ccc(Cl)cc2C(c2c(F)cccc2OC)=NC3)ccc1C(=O)O [alisertib]
Outline: as §1

gefitinib = compound: COc1cc2ncnc(Nc3ccc(F)c(Cl)c3)c2cc1OCCCN1CCOCC1 [gefitinib]
Outline: as §1

[1] = compound: COc1cccc2cc(-c3nc([C@H]4CC[C@H](C(=O)O)CC4)n4ncnc(N)c34)[nH]c12
Outline: as §1

pictilisib = compound: CS(=O)(=O)N1CCN(Cc2cc3nc(-c4cccc5[nH]ncc45)nc(N4CCOCC4)c3s2)CC1 [pictilisib]
Outline: as §1

[2] = compound: CS(=O)(=O)c1ccc(-c2cnc(N)c(C(=O)Nc3ccccc3)n2)cc1
Outline: as §1

[3] = compound: C[C@@H]1COCCN1C2=NC(=NC(=C2)C3(CC3)S(=O)(=O)C)C4=C5C=CNC5=CC=C4
Outline: as §1

gandotinib = compound: Cc1cc(Nc2cc(CN3CCOCC3)c3nc(C)c(Cc4ccc(Cl)cc4F)n3n2)n[nH]1 [gandotinib]
Outline: as §1

[4] = compound: Cc1cc(SCc2sc(-c3ccc(C(F)(F)F)cc3)nc2C)ccc1OCC(=O)O
Outline: as §1

ispinesib = compound: Cc1ccc(C(=O)N(CCCN)[C@@H](c2nc3cc(Cl)ccc3c(=O)n2Cc2ccccc2)C(C)C)cc1 [ispinesib]
Outline: as §1

zotarolimus = compound: CO[C@H]1C[C@@H]2CC[C@@H](C)[C@@](O)(O2)C(=O)C(=O)N2CCCC[C@H]2C(=O)O[C@H]([C@H](C)C[C@@H]2CC[C@H](n3cnnn3)[C@H](OC)C2)CC(=O)[C@H](C)/C=C(\C)[C@@H](O)[C@@H](OC)C(=O)[C@H](C)C[C@H](C)/C=C/C=C/C=C/1C [zotarolimus]
Outline: as §1

idasanutlin = compound: COc1cc(C(=O)O)ccc1NC(=O)[C@@H]1N[C@@H](CC(C)(C)C)[C@](C#N)(c2ccc(Cl)cc2F)[C@H]1c1cccc(Cl)c1F [idasanutlin]
Outline: as §1

[5] = compound: C[C@H](C1=CC=C(C=C1)C(=O)NC2=C3C=CNC3=NC=C2)N
Outline: as §1

tozasertib = compound: Cc1cc(Nc2cc(N3CCN(C)CC3)nc(Sc3ccc(NC(=O)C4CC4)cc3)n2)n[nH]1 [tozasertib]
Outline: as §1

[6] = compound: COc1cc2nc(-c3cc(F)ccc3O)nc(N[C@@H]3CNC[C@H]3C(C)(C)O)c2cc1OC
Outline: as §1

lapatinib = compound: CS(=O)(=O)CCNCc1ccc(-c2ccc3ncnc(Nc4ccc(OCc5cccc(F)c5)c(Cl)c4)c3c2)o1 [lapatinib]
Outline: as §1

duvelisib = compound: C[C@H](Nc1ncnc2nc[nH]c12)c1cc2cccc(Cl)c2c(=O)n1-c1ccccc1 [duvelisib]
Outline: as §1

[7] = compound: COC1=CC=C(C=C1)CN2C=CC3=C2C=C(C=C3)C(=O)NO
Outline: as §1

crizotinib = compound: C[C@@H](Oc1cc(-c2cnn(C3CCNCC3)c2)cnc1N)c1c(Cl)ccc(F)c1Cl [crizotinib]
Outline: as §1

doramapimod = compound: Cc1ccc(-n2nc(C(C)(C)C)cc2NC(=O)Nc2ccc(OCCN3CCOCC3)c3ccccc23)cc1 [doramapimod]
Outline: as §1

Measured: log2 fold change

ACSL6 isoform 1 (UniProt Q9UKU0)
inactive: filanesib -0.054 | alisertib -0.013 | gefitinib 0.103 | [1] 0.123 | pictilisib 0.051 | [2] -0.055 | [3] 0.164 | gandotinib -0.145 | [4] 0.157 | ispinesib -0.198

ABCA7 (UniProt Q8IZY2)
inactive: filanesib 0.043 | zotarolimus -0.114 | idasanutlin 0.209 | gefitinib -0.072 | pictilisib 0.151 | [2] -0.091 | [3] -0.324 | [5] -0.025 | gandotinib 0.382

ABCA8 isoform 3 (UniProt O94911)
inactive: tozasertib -0.509

ABHD4 (UniProt Q8TB40)
inactive: [3] -0.028

ACADL (UniProt P28330)
inactive: filanesib 0.041 | [2] -0.162

ACTRT1 (UniProt Q8TDG2)
inactive: idasanutlin 0.056 | [6] 0.323 | lapatinib -0.413 | pictilisib 0.127 | [3] 0 | duvelisib 0.154 | gandotinib -0.108 | [4] -0.249

ABCF1 (UniProt Q5STZ8)
inactive: zotarolimus -0.058 | idasanutlin -0.146 | gefitinib 0.025 | [5] -0.048 | tozasertib -0.034

ABAT (UniProt P80404)
inactive: [3] -0.108

ACCS (UniProt Q96QU6)
inactive: zotarolimus 0.017 | alisertib -0.263 | gefitinib 0.017 | [1] 0.112 | pictilisib 0.036 | [3] -0.15 | [5] -0.06 | gandotinib 0.029 | tozasertib -0.118 | ispinesib 0.004

ACSF2 isoform 2 (UniProt Q96CM8)
inactive: pictilisib 0.238 | gandotinib 0.118 | ispinesib 0.014

2 neighbouring entries out of the list so far, for reference:
ABAT (UniProt P80404)
inactive: [3] -0.108

ACCS (UniProt Q96QU6)
inactive: zotarolimus 0.017 | alisertib -0.263 | gefitinib 0.017 | [1] 0.112 | pictilisib 0.036 | [3] -0.15 | [5] -0.06 | gandotinib 0.029 | tozasertib -0.118 | ispinesib 0.004

(list continues)

ABHD6 (UniProt Q9BV23)
inactive: filanesib -0.253 | [6] -0.007 | gefitinib 0.212 | lapatinib 0.676 | pictilisib 0.281 | [2] 0.073 | gandotinib 0.063 | tozasertib -0.085 | ispinesib -0.299

ACAD10 isoform 5 (UniProt Q6JQN1)
inactive: idasanutlin -0.231 | duvelisib -0.181 | [4] 0.086 | ispinesib 0.114

ABL1 isoform 2 (UniProt P00519)
inactive: filanesib 0.175 | zotarolimus 0.048 | idasanutlin 0.165 | alisertib -0.105 | [6] 0.058 | [1] 0.051 | lapatinib 0.102 | pictilisib -0.02 | [2] -0.054 | [3] -0.191 | [5] 0.235 | duvelisib -0.128 | gandotinib 0.047 | [4] 0.048 | ispinesib -0.043

ACOX1 isoform 3 (UniProt Q15067)
inactive: [7] -0.176 | crizotinib 0.053 | tozasertib -0.246 | doramapimod 0.12

AARSD1 (UniProt Q9BTE6)
inactive: [7] -0.659 | zotarolimus 0.055 | idasanutlin -0.071 | alisertib 0.08 | [6] 0.036 | gefitinib 0.157 | [1] -0.016 | lapatinib 0.069 | crizotinib -0.036 | [5] 0.033 | [4] 0.026 | doramapimod -0.096

ACTN1 (UniProt H9KV75)
inactive: filanesib -0.114 | zotarolimus 0.154 | idasanutlin -0.181 | alisertib 0.155 | [6] 0.258 | gefitinib -0.07 | [1] 0.02 | lapatinib -0.009 | [2] 0.142 | [3] 0.012 | [5] -0.105 | duvelisib 0.104 | tozasertib -0.181 | [4] -0.078

ABCB11 (UniProt O95342)
inactive: filanesib 0.062 | zotarolimus 0.207 | alisertib 0.001 | [6] 0.289 | [1] -0.109 | lapatinib -0.134 | [2] 0.081 | [5] 0.205 | tozasertib -0.308 | ispinesib 0.017

ABCB5 (UniProt Q2M3G0)
inactive: gefitinib -0.019
